Molecular target: T1, Squalene synthase (Rattus norvegicus, UniProt Q02769)
T1 sequence (Q02769 whole entry): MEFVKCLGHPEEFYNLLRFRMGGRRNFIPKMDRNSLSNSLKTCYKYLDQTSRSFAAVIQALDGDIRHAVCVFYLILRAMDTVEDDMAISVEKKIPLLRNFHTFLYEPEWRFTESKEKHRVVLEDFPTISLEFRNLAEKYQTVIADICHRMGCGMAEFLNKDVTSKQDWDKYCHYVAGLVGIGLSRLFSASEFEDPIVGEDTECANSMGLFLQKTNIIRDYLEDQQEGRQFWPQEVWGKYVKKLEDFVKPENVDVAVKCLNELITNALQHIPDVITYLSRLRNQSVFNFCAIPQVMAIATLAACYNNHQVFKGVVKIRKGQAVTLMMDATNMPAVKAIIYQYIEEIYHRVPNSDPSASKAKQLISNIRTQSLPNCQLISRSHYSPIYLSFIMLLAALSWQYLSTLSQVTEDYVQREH
Experiment: Tested for inhibition against squalene synthase enzyme in rat liver

- IC50: 0.03 µM
SMILES: C=C(CCC12OC(C(=O)O)C(O)(C(=O)O)C(C(=O)O)(O1)[C@H](O)[C@H]2O)[C@@H](OC(C)=O)[C@H](C)Cc1ccccc1 (stereo partly specified)
